Binding data for one substance are collected here from paper PMC5317164.

Chains of the proteins cited; added tags and fusions are not shown. Lines headed by an entry give the natural chain unless they say otherwise; changes in a name come on top.
UniProt P18206: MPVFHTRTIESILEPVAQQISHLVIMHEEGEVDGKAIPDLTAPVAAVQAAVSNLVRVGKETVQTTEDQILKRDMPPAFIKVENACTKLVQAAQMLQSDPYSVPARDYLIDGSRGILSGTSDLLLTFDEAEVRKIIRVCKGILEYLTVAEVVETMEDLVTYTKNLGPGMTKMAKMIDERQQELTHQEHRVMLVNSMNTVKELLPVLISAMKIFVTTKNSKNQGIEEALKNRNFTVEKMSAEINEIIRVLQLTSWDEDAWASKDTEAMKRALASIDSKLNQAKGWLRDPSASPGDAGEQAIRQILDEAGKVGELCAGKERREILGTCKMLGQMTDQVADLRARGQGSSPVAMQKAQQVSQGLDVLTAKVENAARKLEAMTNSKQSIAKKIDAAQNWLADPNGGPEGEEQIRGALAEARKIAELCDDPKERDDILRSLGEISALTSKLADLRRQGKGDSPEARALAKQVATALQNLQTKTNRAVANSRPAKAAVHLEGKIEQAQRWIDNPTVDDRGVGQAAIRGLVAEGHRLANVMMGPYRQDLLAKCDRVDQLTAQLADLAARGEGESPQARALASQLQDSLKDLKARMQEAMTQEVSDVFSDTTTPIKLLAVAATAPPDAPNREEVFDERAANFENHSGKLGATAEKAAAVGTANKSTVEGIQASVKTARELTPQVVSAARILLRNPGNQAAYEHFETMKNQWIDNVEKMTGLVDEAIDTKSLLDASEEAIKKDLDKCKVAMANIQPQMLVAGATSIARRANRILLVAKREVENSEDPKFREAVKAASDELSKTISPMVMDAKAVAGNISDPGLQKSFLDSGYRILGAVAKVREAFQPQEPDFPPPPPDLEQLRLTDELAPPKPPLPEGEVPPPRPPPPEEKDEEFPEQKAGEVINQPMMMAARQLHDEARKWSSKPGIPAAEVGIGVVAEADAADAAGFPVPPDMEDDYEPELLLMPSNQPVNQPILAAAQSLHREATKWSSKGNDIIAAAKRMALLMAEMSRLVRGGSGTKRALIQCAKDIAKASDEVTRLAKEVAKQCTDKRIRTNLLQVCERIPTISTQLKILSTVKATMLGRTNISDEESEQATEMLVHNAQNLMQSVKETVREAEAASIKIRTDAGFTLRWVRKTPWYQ

No constants are given. Whether binding was seen depends on the method and setting. Binding seen in cells or lysates may run through a third protein. Binding can be weak; no strength is given.

In this assay the target is Human VCL variant M94I (mEmerald fusion) (human) (UniProt P18206). As to the kind of experiment: co-IP; lysates of HEK293 cells transfected for 24 h with VCL (WT, M94I or both) and SCN5A; IP with VCL or SCN5A antibody immobilised on agarose resin (Pierce direct IP kit), 4 °C overnight; Western blot. A general note: A western blot detects proteins with antibodies after separation by electrophoresis.

Regarding “Human SCN5A (hNav1.5/hH1C1) (from UniProt Q14524)”, the binding entry is given as “binds”.
